Test [1] addresses VPS26A, purified recombinant (UniProt O75436). The test can be described thus: SEC; purified recombinant proteins, Superdex 75 10/300, 20 mM Tris pH 7.5, 150 mM NaCl, 2 mM DTT; 500 µl of 65 µM complexes at equimolar ratio or in isolation; both purified. Background: In gel filtration, larger molecules generally elute earlier.
The target of test [2] is OTULINcat (aa 80–352) (human) (UniProt Q96BN8). Description: condition: 20–30 µM OTULINcat variant in the cell, 150–450 µM PDZ variant in the syringe; ITC; 25 °C, 20 mM HEPES pH 7.4, 200 mM NaCl, 2 mM TCEP; 20–30 µM OTULINcat variant in the cell, 150–450 µM PDZ variant in the syringe; single-site model; both purified.

Chains of the proteins cited; added tags and fusions are not shown. Residues count along the entry.
UniProt P78352, residues 313-393: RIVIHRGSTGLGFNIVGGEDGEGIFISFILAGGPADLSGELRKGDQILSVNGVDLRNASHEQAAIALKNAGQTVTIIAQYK

This is an account of results in PMC6754446.

No constants are given. Whether binding was seen depends on the method and setting.

In the case of “OTULINcat (aa 80–352) (from UniProt Q96BN8 80-352) (domain or fragment)”, the binding result in test [1] is “no binding (tested: 65 µM)”.

Take “PDZ domain of PSD95 (PDZ 3) (from UniProt P78352 313-393) (domain or fragment)”: the binding result in test [2] is reported as “no binding”.
